Reference: PubChem BioAssay AID328 (DTP/NCI, 2004)
The list is a part of this screen's results and no random one: it gathers tests that were run many times, whatever their T/C, doses with no T/C, and many T/C values between a quarter and a half above the control. Other doses and runs of a compound stand elsewhere. T/C: endpoint of the treated group in % of that of the vehicle group. Some entries give survivors of the animals treated and no T/C: the source files T/C as zero there, which appears to mark a toxic dose or a test without result, not a measured value. Some survivor counts are full or nearly so, which does not show that the dose was tolerated: survival well below the control is almost never listed, so the zero probably covers shortened survival too. Counts of survivors are from the toxicity check (mostly the fifth day) where no day follows; animals may have died later. Schedules are NCI's codes, read here as Q, the interval in days (D) or hours (H), X, the number of doses. Some doses were run more than once; the results are listed from low to high. For survival time, the PubChem record calls one and a half times the control and up active, and a quarter to a half above the control has no call in these data; cut-offs in other NCI protocols can differ. Some T/C values are followed by the survivors on the day toxicity was checked, most often the fifth; without a count, all were alive then.

Tested on: BDF1 mice, P388 leukemia ip, median survival T/C
Test: NCI In Vivo Anticancer Drug Screen. Data for tumor model P388 Leukemia (intraperitoneal) in B6D2F1 (BDF1) mice
Settings: T/C endpoint: median survival time, higher T/C = longer survival
How it was run: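 Each value expresses how treatment altered survival: treated-mouse outcome over vehicle-mouse outcome, both groups bearing the transplanted tumour.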

[1] = dose: 16.0 mg/kg/injection, schedule: Q01DX010 (ip), vehicle: saline
[2] = dose: 62.5 micrograms/kg/injection, schedule: Q01DX010 (ip), vehicle: saline
[3] = dose: 25.0 mg/kg/injection, schedule: Q01DX009 (ip), vehicle: saline with Tween-80
[4] = dose: 50.0 mg/kg/injection, schedule: Q01DX009 (ip), vehicle: saline with Tween-80
[5] = dose: 100.0 mg/kg/injection, schedule: Q01DX009 (ip), vehicle: saline with Tween-80
[6] = dose: 100.0 mg/kg/injection, schedule: Q04DX003 (ip), vehicle: saline with Tween-80
[7] = dose: 200.0 mg/kg/injection, schedule: Q01DX009 (ip), vehicle: saline with Tween-80
[8] = dose: 200.0 mg/kg/injection, schedule: Q04DX003 (ip), vehicle: saline with Tween-80
[9] = dose: 400.0 mg/kg/injection, schedule: Q04DX003 (ip), vehicle: saline with Tween-80
[10] = dose: 100.0 mg/kg/injection, schedule: Q01DX005 (ip), vehicle: saline with Tween-80
[11] = dose: 200.0 mg/kg/injection, schedule: Q01DX005 (ip), vehicle: saline with Tween-80
[12] = dose: 400.0 mg/kg/injection, schedule: Q04DX003 (ip), vehicle: saline
[13] = dose: 400.0 mg/kg/injection, schedule: Q04DX003 (ip), vehicle: Klucel (hydroxypropylcellulose) (HPC)
[14] = dose: 400.0 mg/kg/injection, schedule: Q01DX009 (ip), vehicle: saline with Tween-80
[15] = dose: 300.0 mg/kg/injection, schedule: Q01DX009 (ip), vehicle: saline
[16] = dose: 25.0 mg/kg/injection, schedule: Q01DX009 (ip), vehicle: Klucel (hydroxypropylcellulose) (HPC)

Cc1cc(O)c2cc3c(O)c(O)ccc3cc2c1
T/C (dose: 0.25 mg/kg/injection, schedule: Q01DX010 (ip), vehicle: saline): 136 % of control
survivor count (dose: 8.0 mg/kg/injection, schedule: Q01DX010 (ip), vehicle: saline): 3 of 6
survivor count [1]: 3 of 6
survivor count [2]: 5 of 6

CS(=O)(=O)OCCN(CCOS(C)(=O)=O)c1ccc(C=O)cc1
survivor count [3]: 6 of 6
survivor count [4]: 4 of 6 and 6 of 6
survivor count [5]: 1 of 6
survivor count [6]: 5 of 6
survivor count [7]: 2 of 6
survivor count [8]: 3 of 6
survivor count [9]: 2 of 6

O=C1C(Cl)=C(Sc2nc3ccccc3s2)C(=O)c2ccccc21
survivor count [10]: 0 of 5
survivor count [11]: 0 of 5

C(CC1CO1)C1CO1 (centres undefined)
T/C (dose: 33.0 mg/kg/injection, schedule: Q01DX009 (ip), vehicle: saline): 146 % of control
T/C (dose: 44.0 mg/kg/injection, schedule: Q04DX003 (ip), vehicle: saline): 140 % of control
survivor count (dose: 200.0 mg/kg/injection, schedule: Q04DX003 (ip), vehicle: saline): 1 of 6
survivor count [12]: 0 of 6

COc1cccc2c1C(=O)c1c(O)c3c(c(O)c1C2=O)CC(O)(C(C)=O)CC3OC1CC(N)C(O)C(C)O1 (centres undefined)
T/C (dose: 4.0 mg/kg/injection, schedule: Q01DX010 (ip), vehicle: saline): 135 % of control
T/C (dose: 15.0 mg/kg/injection, schedule: Q04DX003 (ip), vehicle: water): 129 % of control
survivor count [1]: 6 of 6
T/C (dose: 30.0 mg/kg/injection, schedule: Q04DX003 (ip), vehicle: water): 135 and 135 % of control [4 of 5 alive]
survivor count (dose: 32.0 mg/kg/injection, schedule: Q01DX001 (ip), vehicle: saline): 2 of 6
T/C (dose: 60.0 mg/kg/injection, schedule: Q04DX003 (ip), vehicle: water): 147 % of control
T/C (dose: 120.0 mg/kg/injection, schedule: Q04DX003 (ip), vehicle: water): 128 and 136 % of control
T/C (dose: 31.3 micrograms/kg/injection, schedule: Q01DX010 (ip), vehicle: saline): 131 % of control
T/C [2]: 140 % of control

C=CCN1C(=O)CN=C1SC(=O)Nc1ccc(Cl)cc1
survivor count [11]: 4 of 5

CCCCCCCCCCCCS(=O)(=O)O (tested in a mixture with another compound)
survivor count [13]: 2 of 5

O=C(Nc1ccccc1)c1c(O)[nH]c(=S)[nH]c1=O
T/C (dose: 25.0 mg/kg/injection, schedule: Q01DX005 (ip), vehicle: saline with Tween-80): 145 % of control [5 of 6 alive]
survivor count [10]: 0 of 6
survivor count [11]: 0 of 6

Cc1ccc(C2(C(=O)O)CCCC2)cc1
survivor count (dose: 100.0 mg/kg/injection, schedule: Q01DX009 (ip), vehicle: Klucel (hydroxypropylcellulose) (HPC)): 6 of 6
survivor count [5]: 5 of 6
survivor count [14]: 6 of 6

CCOC1CCC(C(C)=O)C(C#N)(C#N)C1(C#N)C#N (centres undefined)
T/C (dose: 12.5 mg/kg/injection, schedule: Q01DX001 (ip), vehicle: saline with Tween-80): 126 % of control
T/C (dose: 50.0 mg/kg/injection, schedule: Q01DX001 (ip), vehicle: saline with Tween-80): 126 % of control
survivor count (dose: 100.0 mg/kg/injection, schedule: Q01DX001 (ip), vehicle: saline with Tween-80): 0 of 6

O=C(/C=C/c1ccc2c(c1)OCO2)/C=C/c1ccc2c(c1)OCO2
survivor count (dose: 50.0 mg/kg/injection, schedule: Q01DX009 (ip), vehicle: saline): 5 of 6
survivor count (dose: 100.0 mg/kg/injection, schedule: Q01DX009 (ip), vehicle: saline): 6 of 6
survivor count [15]: 5 of 6
survivor count [12]: 6 of 6

CCOC(=O)NCCCCCCNC(=O)OCC
survivor count [6]: 6 of 6
survivor count [9]: 5 of 6

Cc1cc(C)c(-c2c(C)cc(C)c(C(=O)c3ccc([N+](=O)[O-])cc3)c2C)c(C)c1C(=O)c1ccc([N+](=O)[O-])cc1
survivor count (dose: 12.5 mg/kg/injection, schedule: Q01DX009 (ip), vehicle: Klucel (hydroxypropylcellulose) (HPC)): 6 of 6
survivor count [16]: 6 of 6

N#CC(Br)(Br)C(N)=O
survivor count (dose: 10.0 mg/kg/injection, schedule: Q01DX009 (ip), vehicle: saline): 5 of 6
survivor count (dose: 20.0 mg/kg/injection, schedule: Q01DX009 (ip), vehicle: saline): 0 of 6

C=C1N(C)c2ccccc2C1(C)C
T/C (dose: 11.8 mg/kg/injection, schedule: Q01DX009 (ip), vehicle: saline with Tween-80): 125 % of control

N#C/C(C(=N)c1ccccc1)=C1\SS/C(=C(\C#N)C(=N)c2ccccc2)S1
T/C (dose: 3.0 mg/kg/injection, schedule: Q01DX009 (ip), vehicle: saline with Tween-80): 135 % of control
T/C (dose: 6.0 mg/kg/injection, schedule: Q01DX009 (ip), vehicle: saline with Tween-80): 126 % of control

CC(C)(C)OC(=O)NN=C1CCC(C(C)(C)C)CC1 (centres undefined)
survivor count [7]: 7 of 7
survivor count [14]: 0 of 7

CC(=O)Nc1ccc2c(c1)Cc1cc(NC=O)ccc1-2
survivor count (dose: 1.5 mg/kg/injection, schedule: Q01DX009 (ip), vehicle: Klucel (hydroxypropylcellulose) (HPC)): 6 of 6
survivor count (dose: 3.12 mg/kg/injection, schedule: Q01DX009 (ip), vehicle: Klucel (hydroxypropylcellulose) (HPC)): 6 of 6
survivor count (dose: 6.25 mg/kg/injection, schedule: Q01DX009 (ip), vehicle: Klucel (hydroxypropylcellulose) (HPC)): 6 of 6
survivor count [16]: 6 of 6
survivor count (dose: 50.0 mg/kg/injection, schedule: Q01DX009 (ip), vehicle: Klucel (hydroxypropylcellulose) (HPC)): 6 of 6
survivor count (dose: 200.0 mg/kg/injection, schedule: Q04DX003 (ip), vehicle: Klucel (hydroxypropylcellulose) (HPC)): 6 of 6
survivor count [13]: 6 of 6

CN(C)NCCC#N
T/C (dose: 150.0 mg/kg/injection, schedule: Q01DX009 (ip), vehicle: saline): 127 % of control
survivor count (dose: 225.0 mg/kg/injection, schedule: Q01DX009 (ip), vehicle: saline): 6 of 6
survivor count [15]: 5 of 6
survivor count (dose: 600.0 mg/kg/injection, schedule: Q01DX009 (ip), vehicle: saline): 0 of 6

CCSc1ncc(Br)c(Sc2nc(N)nc3nc[nH]c23)n1
T/C (dose: 16.5 mg/kg/injection, schedule: Q04DX003 (ip), vehicle: saline with Tween-80): 137 % of control
T/C (dose: 25.0 mg/kg/injection, schedule: Q04DX003 (ip), vehicle: saline with Tween-80): 141 % of control
T/C (dose: 37.5 mg/kg/injection, schedule: Q04DX003 (ip), vehicle: saline with Tween-80): 141 % of control
survivor count [8]: 6 of 6
survivor count [9]: 5 of 6

Cc1ccc(NS(=O)(=O)c2ccc([N+](=O)[O-])cc2)cc1
T/C (dose: 22.0 mg/kg/injection, schedule: Q01DX009 (ip), vehicle: saline with Tween-80): 125 % of control
survivor count [3]: 6 of 6
T/C [4]: 131 % of control
survivor count [7]: 6 of 6

O=[N+]([O-])/C=C/c1ccccc1Cl
survivor count (dose: 15.0 mg/kg/injection, schedule: Q04DX003 (ip), vehicle: other): 4 of 6
survivor count (dose: 22.5 mg/kg/injection, schedule: Q04DX003 (ip), vehicle: other): 4 of 6
